# The other results are listed elsewhere or left out. These are raw signals, not scaled to a control.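 Primary screen: polymyxin B was added at a level permeabilizing Salmonella outer membranes while sparing inner membranes. DMSO wells, both with and without polymyxin B, established maximum growth. Plate-to-plate variation meant each plate was ranked on its own, and the lowest-OD600 compounds were selected as hits.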
# Tested on: Salmonella enterica serovar Typhimurium SL1344
# Test: bacterial growth OD600 after 18 h with compound and polymyxin B; higher = more bacterial growth (less inhibition)
# Settings: 50 µM, Mueller-Hinton broth
Structure (SMILES),bacterial growth OD600 (polymyxin B 1 µg/mL),bacterial growth OD600 (polymyxin B 0.75 µg/mL)
CN(Cc1ccccc1)C(=O)c1nc2ccccn2c1CNCCc1cccnc1,0.767,–
C=CCNC(=O)N1C[C@H]2OC(=O)N(CCc3ccc(OC)cc3)[C@H]2C1,0.947,–
O=C(Cn1cccn1)NC1CC(=O)N(Cc2ccccc2C(F)(F)F)C1 (stereo unspecified),0.976,–
CC1(COc2ccc(-c3nc(COc4ccccc4)no3)cn2)CCCNC1 (stereo unspecified),0.518,–
Cc1ccc(C)c(-c2n[nH]cc2CN2CCCC(CO)(Cc3ccc(F)cc3)C2)c1 (stereo unspecified),1.11,–
CC(=O)N[C@@H](C)C(=O)N1CCc2onc(-c3ccc(F)c(F)c3)c2C1,–,0.832
COc1cccc(OCc2nc(C(=O)NCC(C)C)co2)c1,0.895,–
CCOC(=O)C1(Cc2ccccc2F)CCCN(C(=O)c2cccc(C(=O)OC)c2)C1 (stereo unspecified),0.774,–
COc1cccc(CN2CCCC(NC(=O)c3ccc4[nH]ccc4c3)C2)c1 (stereo unspecified),–,0.69
Cc1ccc2[nH]c(C3CCN(C(=O)C4CCC(=O)N(C5CC5)C4)CC3)nc2c1 (stereo unspecified),0.924,–
CC1=C(C(=O)N2CCC(CCC(=O)Nc3ccc4c(c3)OCCO4)CC2)OCCO1,1.18,–
COc1ccc(CCN2C(=O)O[C@@H]3CN(c4ccnc(SC)n4)C[C@@H]32)cc1,–,0.816
CCN1CC(CN(C)Cc2cn(Cc3ccccc3)nc2-c2cc3ccccc3o2)CC1=O (stereo unspecified),0.009,–
OCC1(Cc2ccccc2)CCCN(Cc2c[nH]nc2-c2cccc(F)c2)C1 (stereo unspecified),1.06,–
COc1cc(CN2CCSCC2)ccc1OCC(O)CN(C)C1CCCCC1 (stereo unspecified),1.21,–
CSCCC(=O)NC1CC(=O)N(Cc2cccc3ccccc23)C1 (stereo unspecified),0.911,–
COc1ccc(CC2(CCC(=O)N[C@@H](Cc3ccccc3)C(N)=O)CCC(=O)N2)c2ccccc12 (stereo partly specified),–,0.971
c1cncc(CNC2CCCc3nc(-c4cccnc4)ncc32)c1 (stereo unspecified),0.925,–
O=C(C1CC12CCCC2)N1CCc2[nH]nc(-c3ccc4c(c3)OCO4)c2C1 (stereo unspecified),–,0.001
CCCNc1ccc(C(=O)NCc2nc(CC)cs2)cn1,1.23,–
COc1ccc(-c2n[nH]cc2CN2CCC(Oc3cccnc3)CC2)c(OC)c1,0.767,–

# 2 records drawn at random from the list so far, as already listed:
Structure (SMILES),bacterial growth OD600 (polymyxin B 1 µg/mL),bacterial growth OD600 (polymyxin B 0.75 µg/mL)
COc1cccc(OCc2nc(C(=O)NCC(C)C)co2)c1,0.895,–
CC1(COc2ccc(-c3nc(COc4ccccc4)no3)cn2)CCCNC1 (stereo unspecified),0.518,–
